Results are given in words; binding and its absence hold for the method and conditions named. Binding seen in cells or lysates may run through a third protein. These calls come from enrichment with a bait or labelling near it, and not all partners need be listed. Tags and fused reporters may be left off the sequences shown.
T1: Halo-tagged PKP2 (cardiac specific PKP2a, wild type) (human) (UniProt Q99959)
T1 sequence: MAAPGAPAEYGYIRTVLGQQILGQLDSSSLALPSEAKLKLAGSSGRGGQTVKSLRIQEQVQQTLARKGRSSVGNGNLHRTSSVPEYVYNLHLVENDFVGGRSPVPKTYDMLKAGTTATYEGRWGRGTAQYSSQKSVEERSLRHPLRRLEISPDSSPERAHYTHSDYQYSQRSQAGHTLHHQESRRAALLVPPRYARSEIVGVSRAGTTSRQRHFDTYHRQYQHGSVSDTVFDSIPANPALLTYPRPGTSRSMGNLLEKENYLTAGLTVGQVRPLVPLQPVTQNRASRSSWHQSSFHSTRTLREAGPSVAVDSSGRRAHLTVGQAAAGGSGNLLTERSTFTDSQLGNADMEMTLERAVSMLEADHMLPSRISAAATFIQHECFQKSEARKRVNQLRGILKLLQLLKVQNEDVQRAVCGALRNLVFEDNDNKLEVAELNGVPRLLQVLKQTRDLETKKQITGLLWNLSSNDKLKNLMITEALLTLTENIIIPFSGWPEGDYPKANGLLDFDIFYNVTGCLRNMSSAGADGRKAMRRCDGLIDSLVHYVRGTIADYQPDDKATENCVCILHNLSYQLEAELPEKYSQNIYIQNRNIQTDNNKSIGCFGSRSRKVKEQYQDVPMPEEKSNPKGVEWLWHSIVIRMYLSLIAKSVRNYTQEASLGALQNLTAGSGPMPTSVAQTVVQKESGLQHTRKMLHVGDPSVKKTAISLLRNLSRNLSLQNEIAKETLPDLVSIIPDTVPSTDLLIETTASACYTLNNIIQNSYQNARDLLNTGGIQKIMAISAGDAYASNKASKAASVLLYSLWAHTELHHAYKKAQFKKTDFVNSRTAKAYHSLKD

The chains behind the UniProt entries cited, without tags or fusion partners.
UniProt P35579: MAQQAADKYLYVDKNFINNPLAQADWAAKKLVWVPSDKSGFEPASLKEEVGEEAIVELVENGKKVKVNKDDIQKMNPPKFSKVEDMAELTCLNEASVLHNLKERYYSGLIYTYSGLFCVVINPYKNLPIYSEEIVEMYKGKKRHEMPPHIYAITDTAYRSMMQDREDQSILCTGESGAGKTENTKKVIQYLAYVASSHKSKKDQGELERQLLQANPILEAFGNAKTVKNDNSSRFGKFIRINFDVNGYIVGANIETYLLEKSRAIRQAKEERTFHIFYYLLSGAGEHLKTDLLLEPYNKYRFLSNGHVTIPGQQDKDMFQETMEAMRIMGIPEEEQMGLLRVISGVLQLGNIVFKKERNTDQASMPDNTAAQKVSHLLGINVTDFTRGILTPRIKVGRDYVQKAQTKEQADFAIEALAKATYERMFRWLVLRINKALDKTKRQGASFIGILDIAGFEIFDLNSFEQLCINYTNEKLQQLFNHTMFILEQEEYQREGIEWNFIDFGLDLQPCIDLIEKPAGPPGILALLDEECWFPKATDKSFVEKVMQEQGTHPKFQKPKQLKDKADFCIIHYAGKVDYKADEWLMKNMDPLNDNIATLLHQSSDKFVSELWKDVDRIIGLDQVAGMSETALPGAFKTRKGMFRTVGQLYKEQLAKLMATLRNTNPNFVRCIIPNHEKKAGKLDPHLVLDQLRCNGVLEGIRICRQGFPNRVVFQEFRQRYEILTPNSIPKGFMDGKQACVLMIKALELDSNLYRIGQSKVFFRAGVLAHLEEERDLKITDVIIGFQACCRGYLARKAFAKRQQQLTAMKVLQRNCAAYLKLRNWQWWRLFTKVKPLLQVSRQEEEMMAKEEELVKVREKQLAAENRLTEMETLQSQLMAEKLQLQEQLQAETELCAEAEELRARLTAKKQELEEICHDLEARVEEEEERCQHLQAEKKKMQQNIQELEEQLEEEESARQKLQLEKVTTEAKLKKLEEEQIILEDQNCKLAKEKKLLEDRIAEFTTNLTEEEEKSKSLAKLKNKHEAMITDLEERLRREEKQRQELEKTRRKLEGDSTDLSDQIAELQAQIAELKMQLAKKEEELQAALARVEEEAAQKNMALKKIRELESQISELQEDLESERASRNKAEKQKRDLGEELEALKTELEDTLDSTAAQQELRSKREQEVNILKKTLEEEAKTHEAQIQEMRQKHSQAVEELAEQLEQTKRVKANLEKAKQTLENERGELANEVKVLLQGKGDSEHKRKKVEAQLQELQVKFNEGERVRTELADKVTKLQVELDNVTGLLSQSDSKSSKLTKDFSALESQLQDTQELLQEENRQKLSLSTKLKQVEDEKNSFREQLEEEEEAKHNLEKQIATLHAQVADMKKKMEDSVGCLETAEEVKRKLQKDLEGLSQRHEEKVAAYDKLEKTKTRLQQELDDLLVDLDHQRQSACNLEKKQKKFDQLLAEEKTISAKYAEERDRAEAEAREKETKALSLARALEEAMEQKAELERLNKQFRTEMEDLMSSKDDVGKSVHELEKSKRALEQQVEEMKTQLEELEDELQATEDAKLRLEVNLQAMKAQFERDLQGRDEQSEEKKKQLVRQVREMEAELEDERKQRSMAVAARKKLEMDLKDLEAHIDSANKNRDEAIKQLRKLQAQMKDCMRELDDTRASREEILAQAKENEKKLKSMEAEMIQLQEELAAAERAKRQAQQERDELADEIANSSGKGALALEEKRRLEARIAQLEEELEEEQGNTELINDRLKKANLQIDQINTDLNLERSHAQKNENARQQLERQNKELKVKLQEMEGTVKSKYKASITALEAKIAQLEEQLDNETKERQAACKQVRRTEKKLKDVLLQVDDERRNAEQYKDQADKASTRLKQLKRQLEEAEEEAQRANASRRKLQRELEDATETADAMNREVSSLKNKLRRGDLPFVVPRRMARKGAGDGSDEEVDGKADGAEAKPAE
UniProt P15924: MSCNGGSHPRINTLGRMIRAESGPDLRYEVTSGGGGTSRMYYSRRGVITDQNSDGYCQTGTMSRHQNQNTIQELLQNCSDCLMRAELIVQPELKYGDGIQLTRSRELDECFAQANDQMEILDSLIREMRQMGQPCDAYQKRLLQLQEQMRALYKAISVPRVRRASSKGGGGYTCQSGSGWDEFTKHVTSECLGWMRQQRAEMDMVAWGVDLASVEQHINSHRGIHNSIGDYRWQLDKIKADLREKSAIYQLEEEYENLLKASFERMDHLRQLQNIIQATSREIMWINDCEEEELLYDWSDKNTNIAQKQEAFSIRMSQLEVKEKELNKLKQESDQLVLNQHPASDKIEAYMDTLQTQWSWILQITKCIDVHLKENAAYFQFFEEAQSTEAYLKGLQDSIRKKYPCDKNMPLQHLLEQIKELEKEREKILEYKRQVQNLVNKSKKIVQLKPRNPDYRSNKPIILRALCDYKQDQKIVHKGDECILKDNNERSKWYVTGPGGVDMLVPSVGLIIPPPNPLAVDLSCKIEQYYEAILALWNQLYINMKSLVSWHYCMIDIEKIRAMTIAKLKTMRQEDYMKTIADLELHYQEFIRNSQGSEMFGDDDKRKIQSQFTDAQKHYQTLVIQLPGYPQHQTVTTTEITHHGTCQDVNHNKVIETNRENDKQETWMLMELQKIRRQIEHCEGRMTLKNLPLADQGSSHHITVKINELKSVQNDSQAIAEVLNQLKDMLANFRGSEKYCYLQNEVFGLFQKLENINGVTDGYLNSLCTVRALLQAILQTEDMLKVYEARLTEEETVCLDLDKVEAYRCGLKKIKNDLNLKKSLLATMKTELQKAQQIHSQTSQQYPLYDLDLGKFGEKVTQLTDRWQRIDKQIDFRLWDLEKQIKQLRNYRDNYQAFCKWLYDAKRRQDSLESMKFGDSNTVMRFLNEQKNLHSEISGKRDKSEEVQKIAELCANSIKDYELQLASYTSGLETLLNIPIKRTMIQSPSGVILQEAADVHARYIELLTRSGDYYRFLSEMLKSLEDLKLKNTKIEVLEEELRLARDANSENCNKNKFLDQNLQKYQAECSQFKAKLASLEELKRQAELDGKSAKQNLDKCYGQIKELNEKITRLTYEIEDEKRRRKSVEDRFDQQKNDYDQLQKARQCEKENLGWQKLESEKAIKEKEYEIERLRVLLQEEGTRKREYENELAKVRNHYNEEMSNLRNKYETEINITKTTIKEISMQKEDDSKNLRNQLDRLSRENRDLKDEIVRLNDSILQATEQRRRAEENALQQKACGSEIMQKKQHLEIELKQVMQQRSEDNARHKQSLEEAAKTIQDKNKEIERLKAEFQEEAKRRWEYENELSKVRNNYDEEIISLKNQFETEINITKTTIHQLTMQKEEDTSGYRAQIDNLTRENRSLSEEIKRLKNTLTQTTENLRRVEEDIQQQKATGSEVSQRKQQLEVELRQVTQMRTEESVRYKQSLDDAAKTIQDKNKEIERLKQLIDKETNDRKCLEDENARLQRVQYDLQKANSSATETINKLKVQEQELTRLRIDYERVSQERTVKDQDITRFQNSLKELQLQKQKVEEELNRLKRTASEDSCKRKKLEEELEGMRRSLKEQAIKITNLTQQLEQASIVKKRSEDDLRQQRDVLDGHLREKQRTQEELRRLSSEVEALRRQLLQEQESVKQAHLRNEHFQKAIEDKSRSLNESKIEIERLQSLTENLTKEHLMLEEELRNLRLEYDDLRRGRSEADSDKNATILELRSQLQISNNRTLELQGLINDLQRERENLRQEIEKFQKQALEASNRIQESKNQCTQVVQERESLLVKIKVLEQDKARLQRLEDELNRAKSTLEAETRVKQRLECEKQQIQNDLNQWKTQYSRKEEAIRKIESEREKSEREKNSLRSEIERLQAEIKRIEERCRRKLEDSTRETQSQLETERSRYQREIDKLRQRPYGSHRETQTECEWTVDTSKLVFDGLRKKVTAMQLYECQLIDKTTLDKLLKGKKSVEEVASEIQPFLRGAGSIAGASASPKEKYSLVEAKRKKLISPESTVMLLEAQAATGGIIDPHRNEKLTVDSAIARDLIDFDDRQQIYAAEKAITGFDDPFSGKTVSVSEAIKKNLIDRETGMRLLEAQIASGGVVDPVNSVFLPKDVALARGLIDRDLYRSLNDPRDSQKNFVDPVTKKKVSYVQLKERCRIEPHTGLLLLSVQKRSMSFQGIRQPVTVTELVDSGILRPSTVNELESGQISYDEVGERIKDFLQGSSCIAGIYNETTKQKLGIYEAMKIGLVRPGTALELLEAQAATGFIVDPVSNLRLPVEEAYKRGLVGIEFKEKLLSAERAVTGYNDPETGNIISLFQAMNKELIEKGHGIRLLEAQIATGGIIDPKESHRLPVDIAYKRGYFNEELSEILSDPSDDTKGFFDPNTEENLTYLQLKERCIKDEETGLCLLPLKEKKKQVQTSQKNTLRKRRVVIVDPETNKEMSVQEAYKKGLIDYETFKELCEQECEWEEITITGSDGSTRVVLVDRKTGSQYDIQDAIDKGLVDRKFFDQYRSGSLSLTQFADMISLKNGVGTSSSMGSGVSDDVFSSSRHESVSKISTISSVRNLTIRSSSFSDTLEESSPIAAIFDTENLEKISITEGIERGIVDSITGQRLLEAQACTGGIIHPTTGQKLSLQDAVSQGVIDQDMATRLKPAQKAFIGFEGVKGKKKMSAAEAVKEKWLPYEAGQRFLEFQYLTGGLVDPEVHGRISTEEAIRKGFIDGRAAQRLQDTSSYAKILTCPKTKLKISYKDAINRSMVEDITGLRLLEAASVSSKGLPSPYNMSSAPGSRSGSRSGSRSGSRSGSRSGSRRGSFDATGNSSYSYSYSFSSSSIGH

B1: plakoglobin (JUP) (protein, UniProt P14923 1-745)
chain: MEVMNLMEQPIKVTEWQQTYTYDSGIHSGANTCVPSVSSKGIMEEDEACGRQYTLKKTTTYTQGVPPSQGDLEYQMSTTARAKRVREAMCPGVSGEDSSLLLATQVEGQATNLQRLAEPSQLLKSAIVHLINYQDDAELATRALPELTKLLNDEDPVVVTKAAMIVNQLSKKEASRRALMGSPQLVAAVVRTMQNTSDLDTARCTTSILHNLSHHREGLLAIFKSGGIPALVRMLSSPVESVLFYAITTLHNLLLYQEGAKMAVRLADGLQKMVPLLNKNNPKFLAITTDCLQLLAYGNQESKLIILANGGPQALVQIMRNYSYEKLLWTTSRVLKVLSVCPSNKPAIVEAGGMQALGKHLTSNSPRLVQNCLWTLRNLSDVATKQEGLESVLKILVNQLSVDDVNVLTCATGTLSNLTCNNSKNKTLVTQNSGVEALIHAILRAGDKDDITEPAVCALRHLTSRHPEAEMAQNSVRLNYGIPAIVKLLNQPNQWPLVKATIGLIRNLALCPANHAPLQEAAVIPRLVQLLVKAHQDAQRHVAAGTQQPYTDGVRMEEIVEGCTGALHILARDPMNRMEIFRLNTIPLFVQLLYSSVENIQRVAAGVLCELAQDKEAADAIDAEGASAPLMELLHSRNEGTATYAAAVLFRISEDKNPDYRKRVSVELTNSLFKHDPAAWEAAQSMIPINEPYGDDMDATYRPMYSSDVPLDPLEMHMDMDGDYPIDTYSDGLRPPYPTADHMLA

Biological target: T1, Halo-tagged PKP2 (cardiac specific PKP2a, wild type) (human)
Assay: affinity purification with mass spectrometry; HaloTag pull-down from HEK293T lysate (Mammalian Lysis Buffer) on HaloLink resin; washed in 100 mM Tris pH 7.6, 150 mM NaCl, 1 mg/mL BSA, 0.05% IGEPAL CA-630; released with TEV protease overnight at 4 °C; LC-MS/MS

binding | Molecule
binds | myosin 9 (MYH9) (from UniProt P35579 1-1960)
binds | desmoplakin (DSP) (from UniProt P15924 1-2871)
binds | myosin 10 (MYH10) (from UniProt P35580 1-1976)
binds | desmoglein (DGS) (human (endogenous in HEK293T))
binds | B1

Source: paper PMC10575922
